# Measurements published in the supplement of paper PMC7666118.
# The chains behind the UniProt entries cited, without tags or fusion partners. Where a name states a change or a piece, a line headed by the entry shows the natural chain unless it says otherwise.
# UniProt Q08623: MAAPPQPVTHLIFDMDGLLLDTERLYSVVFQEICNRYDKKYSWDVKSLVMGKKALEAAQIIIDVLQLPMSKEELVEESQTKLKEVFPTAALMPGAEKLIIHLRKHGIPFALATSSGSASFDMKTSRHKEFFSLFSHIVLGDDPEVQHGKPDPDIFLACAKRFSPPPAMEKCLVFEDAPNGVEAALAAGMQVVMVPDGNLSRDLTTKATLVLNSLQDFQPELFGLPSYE
# UniProt Q9Y692: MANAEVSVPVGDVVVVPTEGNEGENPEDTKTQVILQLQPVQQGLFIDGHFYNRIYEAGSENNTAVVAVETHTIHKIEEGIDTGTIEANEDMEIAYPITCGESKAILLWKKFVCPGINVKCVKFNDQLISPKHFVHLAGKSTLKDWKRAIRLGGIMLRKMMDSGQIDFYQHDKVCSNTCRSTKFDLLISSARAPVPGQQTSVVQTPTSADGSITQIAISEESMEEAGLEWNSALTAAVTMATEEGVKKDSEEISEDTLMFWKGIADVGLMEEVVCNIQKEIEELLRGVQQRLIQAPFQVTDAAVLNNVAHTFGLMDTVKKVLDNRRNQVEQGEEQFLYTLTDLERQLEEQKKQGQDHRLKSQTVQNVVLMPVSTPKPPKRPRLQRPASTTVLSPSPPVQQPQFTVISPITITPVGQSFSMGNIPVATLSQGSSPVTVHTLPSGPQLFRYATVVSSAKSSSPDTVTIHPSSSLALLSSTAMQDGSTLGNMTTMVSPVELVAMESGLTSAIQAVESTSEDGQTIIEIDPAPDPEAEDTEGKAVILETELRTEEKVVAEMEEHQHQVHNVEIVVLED
# UniProt Q7Z4H3: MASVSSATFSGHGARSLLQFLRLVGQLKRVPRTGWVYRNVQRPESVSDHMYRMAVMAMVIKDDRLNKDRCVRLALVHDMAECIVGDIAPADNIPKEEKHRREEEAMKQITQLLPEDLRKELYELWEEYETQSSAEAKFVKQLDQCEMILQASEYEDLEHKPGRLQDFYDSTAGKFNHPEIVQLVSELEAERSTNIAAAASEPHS
# UniProt P51858: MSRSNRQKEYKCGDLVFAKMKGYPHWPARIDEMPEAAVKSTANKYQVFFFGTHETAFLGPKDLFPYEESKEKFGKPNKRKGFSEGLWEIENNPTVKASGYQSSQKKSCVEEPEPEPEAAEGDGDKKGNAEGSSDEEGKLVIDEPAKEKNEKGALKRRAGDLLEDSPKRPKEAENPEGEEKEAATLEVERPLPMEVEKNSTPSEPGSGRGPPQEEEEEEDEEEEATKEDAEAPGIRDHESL
# UniProt Q3KR37, whole entry: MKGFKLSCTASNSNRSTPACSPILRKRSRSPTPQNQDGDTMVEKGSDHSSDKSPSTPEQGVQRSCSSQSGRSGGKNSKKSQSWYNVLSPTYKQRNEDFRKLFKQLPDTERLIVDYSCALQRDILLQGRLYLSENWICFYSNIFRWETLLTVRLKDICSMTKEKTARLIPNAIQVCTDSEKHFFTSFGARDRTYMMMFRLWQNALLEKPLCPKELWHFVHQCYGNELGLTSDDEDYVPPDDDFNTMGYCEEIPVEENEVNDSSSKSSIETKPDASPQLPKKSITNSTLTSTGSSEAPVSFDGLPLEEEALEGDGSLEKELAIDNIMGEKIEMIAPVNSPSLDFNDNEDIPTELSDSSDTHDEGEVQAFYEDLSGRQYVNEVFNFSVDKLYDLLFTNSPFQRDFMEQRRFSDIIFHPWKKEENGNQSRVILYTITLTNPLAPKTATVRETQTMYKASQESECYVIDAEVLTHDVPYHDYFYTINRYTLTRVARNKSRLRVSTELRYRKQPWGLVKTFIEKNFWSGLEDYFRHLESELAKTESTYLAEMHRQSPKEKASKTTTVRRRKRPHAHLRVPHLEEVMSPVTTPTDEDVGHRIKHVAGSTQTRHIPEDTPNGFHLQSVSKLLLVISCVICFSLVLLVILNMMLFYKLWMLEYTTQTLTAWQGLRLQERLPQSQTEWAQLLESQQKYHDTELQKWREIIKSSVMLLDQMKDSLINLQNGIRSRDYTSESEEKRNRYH
# UniProt P07203, whole entry: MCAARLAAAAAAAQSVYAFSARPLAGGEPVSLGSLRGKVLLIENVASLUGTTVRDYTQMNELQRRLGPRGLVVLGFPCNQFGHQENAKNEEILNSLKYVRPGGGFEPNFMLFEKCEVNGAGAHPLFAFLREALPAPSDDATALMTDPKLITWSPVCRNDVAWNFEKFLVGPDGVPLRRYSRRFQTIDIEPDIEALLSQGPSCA
# UniProt Q9NPR9: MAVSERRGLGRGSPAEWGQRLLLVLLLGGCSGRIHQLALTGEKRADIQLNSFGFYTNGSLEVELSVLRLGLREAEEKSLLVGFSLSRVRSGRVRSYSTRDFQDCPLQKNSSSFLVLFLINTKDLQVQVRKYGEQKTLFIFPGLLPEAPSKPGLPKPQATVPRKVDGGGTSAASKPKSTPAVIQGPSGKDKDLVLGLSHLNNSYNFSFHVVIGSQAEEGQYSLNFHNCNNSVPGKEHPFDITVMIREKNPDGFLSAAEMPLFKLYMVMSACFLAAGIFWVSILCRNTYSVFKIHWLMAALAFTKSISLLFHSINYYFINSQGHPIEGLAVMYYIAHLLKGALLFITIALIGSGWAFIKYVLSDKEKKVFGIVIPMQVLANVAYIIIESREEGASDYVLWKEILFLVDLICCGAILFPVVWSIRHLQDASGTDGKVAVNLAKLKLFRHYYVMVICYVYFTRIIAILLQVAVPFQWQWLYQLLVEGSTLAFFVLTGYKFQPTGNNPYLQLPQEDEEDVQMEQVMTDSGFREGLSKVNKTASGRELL
# UniProt Q9UBN7: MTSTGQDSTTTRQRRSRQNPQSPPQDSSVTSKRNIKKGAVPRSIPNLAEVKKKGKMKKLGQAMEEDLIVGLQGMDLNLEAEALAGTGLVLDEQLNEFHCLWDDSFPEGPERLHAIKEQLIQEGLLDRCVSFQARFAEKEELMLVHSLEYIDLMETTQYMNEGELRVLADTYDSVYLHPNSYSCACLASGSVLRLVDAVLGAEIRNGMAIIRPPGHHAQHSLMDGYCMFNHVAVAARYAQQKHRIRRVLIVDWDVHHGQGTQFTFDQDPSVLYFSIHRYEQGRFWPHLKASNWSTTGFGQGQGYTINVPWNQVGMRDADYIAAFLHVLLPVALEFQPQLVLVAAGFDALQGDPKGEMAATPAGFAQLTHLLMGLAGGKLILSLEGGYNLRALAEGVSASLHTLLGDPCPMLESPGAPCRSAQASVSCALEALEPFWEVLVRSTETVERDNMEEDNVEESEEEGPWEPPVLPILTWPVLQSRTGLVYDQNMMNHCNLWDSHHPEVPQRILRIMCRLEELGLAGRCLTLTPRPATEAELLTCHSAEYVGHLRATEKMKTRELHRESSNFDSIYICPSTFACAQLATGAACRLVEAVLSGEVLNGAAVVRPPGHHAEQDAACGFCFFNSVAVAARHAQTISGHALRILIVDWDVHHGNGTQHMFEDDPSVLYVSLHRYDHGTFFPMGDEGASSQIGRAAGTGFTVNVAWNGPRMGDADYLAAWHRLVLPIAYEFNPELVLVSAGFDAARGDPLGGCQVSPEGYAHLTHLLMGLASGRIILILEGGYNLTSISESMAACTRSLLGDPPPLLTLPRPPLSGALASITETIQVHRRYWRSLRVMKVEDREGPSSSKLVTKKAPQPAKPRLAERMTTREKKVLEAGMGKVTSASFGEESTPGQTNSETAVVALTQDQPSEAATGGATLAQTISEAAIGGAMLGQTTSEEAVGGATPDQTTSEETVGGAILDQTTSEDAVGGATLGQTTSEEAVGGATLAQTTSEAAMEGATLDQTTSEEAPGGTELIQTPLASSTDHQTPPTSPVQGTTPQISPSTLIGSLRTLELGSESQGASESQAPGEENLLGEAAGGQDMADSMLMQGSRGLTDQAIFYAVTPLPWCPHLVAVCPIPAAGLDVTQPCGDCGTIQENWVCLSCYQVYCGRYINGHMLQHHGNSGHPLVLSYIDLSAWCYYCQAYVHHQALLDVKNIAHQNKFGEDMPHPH
# UniProt P52789: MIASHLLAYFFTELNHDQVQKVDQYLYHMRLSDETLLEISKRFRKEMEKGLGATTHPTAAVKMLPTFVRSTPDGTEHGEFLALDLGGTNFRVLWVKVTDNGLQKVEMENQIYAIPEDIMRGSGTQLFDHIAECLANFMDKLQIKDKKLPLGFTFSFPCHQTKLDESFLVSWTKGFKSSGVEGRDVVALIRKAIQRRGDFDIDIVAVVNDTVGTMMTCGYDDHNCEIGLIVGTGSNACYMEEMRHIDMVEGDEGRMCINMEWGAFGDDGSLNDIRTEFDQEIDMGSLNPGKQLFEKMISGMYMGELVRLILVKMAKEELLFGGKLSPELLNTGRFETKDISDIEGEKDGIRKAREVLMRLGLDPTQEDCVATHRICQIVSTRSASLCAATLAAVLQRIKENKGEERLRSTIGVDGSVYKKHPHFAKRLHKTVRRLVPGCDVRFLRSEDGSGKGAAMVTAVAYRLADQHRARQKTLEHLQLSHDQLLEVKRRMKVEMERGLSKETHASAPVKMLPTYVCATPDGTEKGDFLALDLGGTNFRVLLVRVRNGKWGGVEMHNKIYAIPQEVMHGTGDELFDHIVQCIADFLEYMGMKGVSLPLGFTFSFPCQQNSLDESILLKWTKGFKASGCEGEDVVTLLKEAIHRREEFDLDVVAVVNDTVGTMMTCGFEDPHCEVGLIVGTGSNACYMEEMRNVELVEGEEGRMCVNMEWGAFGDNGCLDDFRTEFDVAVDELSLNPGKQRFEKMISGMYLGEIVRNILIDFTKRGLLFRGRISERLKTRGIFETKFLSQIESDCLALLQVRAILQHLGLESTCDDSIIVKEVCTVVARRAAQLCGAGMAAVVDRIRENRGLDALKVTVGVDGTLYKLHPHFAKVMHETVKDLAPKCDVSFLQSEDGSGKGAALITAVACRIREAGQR
# UniProt Q92522: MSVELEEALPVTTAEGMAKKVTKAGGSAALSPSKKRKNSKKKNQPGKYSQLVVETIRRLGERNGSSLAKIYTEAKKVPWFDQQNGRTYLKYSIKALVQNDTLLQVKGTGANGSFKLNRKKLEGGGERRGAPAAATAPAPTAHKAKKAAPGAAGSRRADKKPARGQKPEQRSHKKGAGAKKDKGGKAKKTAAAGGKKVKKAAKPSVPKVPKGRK
# UniProt Q8WXD5: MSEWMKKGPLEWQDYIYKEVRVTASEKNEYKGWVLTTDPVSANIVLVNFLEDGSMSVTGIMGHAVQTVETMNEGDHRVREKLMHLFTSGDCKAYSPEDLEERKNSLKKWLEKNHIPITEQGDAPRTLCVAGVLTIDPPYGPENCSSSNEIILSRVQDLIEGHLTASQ
# UniProt Q9H840: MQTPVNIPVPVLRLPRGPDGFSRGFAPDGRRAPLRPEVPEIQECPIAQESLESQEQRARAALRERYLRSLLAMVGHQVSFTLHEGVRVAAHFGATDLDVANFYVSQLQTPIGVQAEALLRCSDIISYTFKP
# UniProt O75223: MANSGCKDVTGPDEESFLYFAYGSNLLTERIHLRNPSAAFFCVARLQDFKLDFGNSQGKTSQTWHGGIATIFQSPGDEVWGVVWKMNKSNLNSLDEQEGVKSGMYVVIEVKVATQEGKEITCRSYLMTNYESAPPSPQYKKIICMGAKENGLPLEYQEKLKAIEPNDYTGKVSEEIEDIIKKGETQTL
# UniProt Q8WW33: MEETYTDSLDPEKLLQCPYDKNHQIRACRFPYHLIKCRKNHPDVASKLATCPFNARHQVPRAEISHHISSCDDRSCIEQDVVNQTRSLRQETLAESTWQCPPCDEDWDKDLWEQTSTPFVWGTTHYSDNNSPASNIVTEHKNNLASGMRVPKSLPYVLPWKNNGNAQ
# UniProt P06865: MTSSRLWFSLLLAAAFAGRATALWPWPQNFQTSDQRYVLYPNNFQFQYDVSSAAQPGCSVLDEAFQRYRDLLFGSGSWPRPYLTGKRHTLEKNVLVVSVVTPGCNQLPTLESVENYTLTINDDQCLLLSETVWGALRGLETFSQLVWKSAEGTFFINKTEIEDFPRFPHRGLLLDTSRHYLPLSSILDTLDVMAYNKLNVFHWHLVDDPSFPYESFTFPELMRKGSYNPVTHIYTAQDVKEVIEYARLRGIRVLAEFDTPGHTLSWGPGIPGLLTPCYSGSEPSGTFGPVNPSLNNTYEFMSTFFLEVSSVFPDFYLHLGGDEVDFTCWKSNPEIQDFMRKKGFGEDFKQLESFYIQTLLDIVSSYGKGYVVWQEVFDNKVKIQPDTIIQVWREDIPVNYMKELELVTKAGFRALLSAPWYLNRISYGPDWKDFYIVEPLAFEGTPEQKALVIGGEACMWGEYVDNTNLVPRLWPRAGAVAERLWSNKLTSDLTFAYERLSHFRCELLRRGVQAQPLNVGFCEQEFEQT
# UniProt Q9H4A6: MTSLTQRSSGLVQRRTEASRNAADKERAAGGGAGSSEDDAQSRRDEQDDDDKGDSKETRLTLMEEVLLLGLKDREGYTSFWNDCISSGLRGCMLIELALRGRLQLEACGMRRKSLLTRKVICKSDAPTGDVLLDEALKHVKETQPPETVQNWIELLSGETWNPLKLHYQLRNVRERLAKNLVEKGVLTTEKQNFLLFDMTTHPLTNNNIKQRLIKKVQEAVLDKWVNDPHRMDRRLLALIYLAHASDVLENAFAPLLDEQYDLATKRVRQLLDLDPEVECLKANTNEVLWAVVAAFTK
# The list shows a part of the results.
# Compound: COc1ccc(Cn2ccc3ccc(C(=O)NO)cc32)cc1
# Test: dose-dependent thermal stabilisation call (2D-TPP, DLPTP, 10% FDR) (binary (1 = stabilised)); higher = stabilised by the compound
# Conditions: system: HL-60 intact cells; concentration range 0.04-10 µM
row,Target,dose-dependent thermal stabilisation call
1,GCLM (UniProt P48507),inactive: 0
2,HDHD1A (UniProt Q08623),inactive: 0
3,GMEB1 (UniProt Q9Y692),inactive: 0
4,HCG_21078,inactive: 0
5,HDDC2 (UniProt Q7Z4H3),inactive: 0
6,GPR107 (UniProt Q5VW38),inactive: 0
7,HISPPD1 (UniProt O43314),inactive: 0
8,GPBP1L1 (UniProt Q9HC44),inactive: 0
9,HDGF (UniProt P51858),inactive: 0
10,GRAMD1B (UniProt Q3KR37),inactive: 0
11,GTF2E2 (UniProt P29084),inactive: 0
12,GPX1 (UniProt P07203),inactive: 0
13,HDAC10 (UniProt Q969S8),inactive: 0
14,GPR108 (UniProt Q9NPR9),inactive: 0
15,HDAC6 (UniProt Q9UBN7),active: 1
16,HK2 (UniProt P52789),inactive: 0
17,GRB10 (UniProt Q13322),inactive: 0
18,GUF1 (UniProt Q8N442),inactive: 0
19,H1FX (UniProt Q92522),inactive: 0

# Some of the entries so far, as tab-separated lines:
row	Target	dose-dependent thermal stabilisation call
6	GPR107 (UniProt Q5VW38)	inactive: 0
8	GPBP1L1 (UniProt Q9HC44)	inactive: 0
9	HDGF (UniProt P51858)	inactive: 0

# Following part:

row,Target,dose-dependent thermal stabilisation call
1,GNA11 (UniProt P29992),inactive: 0
2,GPKOW (UniProt Q92917),inactive: 0
3,GEMIN6 (UniProt Q8WXD5),inactive: 0
4,GTPBP4 (UniProt Q9BZE4),inactive: 0
5,GEMIN7 (UniProt Q9H840),inactive: 0
6,GGCT (UniProt O75223),inactive: 0
7,GLMN (UniProt Q92990),inactive: 0
8,GTSF1 (UniProt Q8WW33),inactive: 0
9,HEXA (UniProt P06865),inactive: 0
10,HADHB (UniProt P55084),active: 1
11,GNAI3 (UniProt P08754),inactive: 0
12,GOPC (UniProt Q9HD26),inactive: 0
13,GTSE1 (UniProt Q9NYZ3),inactive: 0
14,GOLPH3 (UniProt Q9H4A6),inactive: 0
15,HERC1 (UniProt Q15751),inactive: 0
16,GSTCD (UniProt Q8NEC7),active: 1
17,GDI2 (UniProt P50395),inactive: 0
18,GSTO1 (UniProt P78417),active: 1
